Experimental data reported in patent US11458099B2, “Inhalable antimicrobial particles and methods of making the same” (The Penn State Research Foundation, priority 2017, dated 2022).

Tested on: S. aureus (+)
Test: MIC of VAN, NGVAN, NG (broth dilution)
Type: cell-based
Conditions: Staphylococcus aureus, drug or equivalent concentration of drug loaded into nanogels
Protocol: 2× Dilutions of treatments in broth were plated into a U-bottom 96 well plate. Overnight cultures of Pseudomonas aeruginosa, Escherichia coli, Acinetobacter baumannii, Salmonella enterica and Staphylococcus aureus were incubated in cation adjusted Mueller-Hinton broth as advised by CLSI. Bacteria were diluted to an OD600 of 0.002 and plated in a 1:1 volume ratio with the treatments. These cultures were incubated overnight and MIC values were assessed by visual evaluation of growth inhibition when compared to untreated samples.

Compound: CN[C@H](CC(C)C)C(=O)N[C@H]1C(=O)N[C@@H](CC(N)=O)C(=O)N[C@H]2C(=O)N[C@H]3C(=O)N[C@H](C(=O)N[C@H](C(=O)O)c4cc(O)cc(O)c4-c4cc3ccc4O)[C@H](O)c3ccc(c(Cl)c3)Oc3cc2cc(c3O[C@@H]2O[C@H](CO)[C@@H](O)[C@H](O)[C@H]2O[C@H]2C[C@](C)(N)[C@H](O)[C@H](C)O2)Oc2ccc(cc2Cl)[C@H]1O [VAN, Vancomycin]
- MIC: 4.5 µg/mL
